Patent US12085575B2, “Compositions and methods for detecting proteinopathies” (BOARD OF SUPERVISORS OF LOUISIANA STATE UNIVERSITY AND …, priority 2011, dated 2024)
Some entries share one result that the patent states for a list of compounds.

Tested on: Mfn2
Assay: Mfn2 modification and degradation in A-T/LV shRNA cells treated with mitochondrial depolarizing agents
Format: cell-based, human
Details: ISG15-silenced A-T cells, 24 hr
Protocol: Immunoblotting Analysis of Mitochondrial Proteins—Mitochondria were isolated from A-T/LV control and ISG15 shRNA cells using the Miochondrial Isolation Kit (Thermo Scientific Company, 89874). The Dounce homogenization protocol described by the manufacturer was used to isolate mitochondria from cells. Mitochondrial pellets were resuspended in lysis buffer containing 50 mM Tris pH 7.5 and 4% (v/v) SDS. Samples were homogenized and boiled for 10 min. Lysates containing equal protein were then mixed with 6× Laemmli SDS sample buffer (3× final concentration). Samples were boiled again and mitochondrial proteins were analyzed by SDS-PAGE. […] Intensity of the Mfn2 bands was quantitated using BioRad Quantity One software. […]
Many outer mitochondrial membrane (OMM) proteins are ubiquitylated and degraded via the 26S proteasome prior to mitophagy in cells treated with the mitochondrial depolarizing agents (28,29). To test whether ISG15 inhibits polyubiquitylation of OMM proteins, we assessed the fate of Mfn2, an OMM protein and proteasome substrate, in A-T/LV-control and A-T/LV-ISG15-silenced cells treated with two different mitochondrial depolarizing agents, valinomycin and carbonylcyanide m-chlorophenylhydrazone (CCCP). […]

## CC(C)[C@@H]1NC(=O)[C@H](C)OC(=O)[C@@H](C(C)C)NC(=O)[C@@H](C(C)C)OC(=O)[C@H](C(C)C)NC(=O)[C@H](C)OC(=O)[C@@H](C(C)C)NC(=O)[C@@H](C(C)C)OC(=O)[C@H](C(C)C)NC(=O)[C@H](C)OC(=O)[C@@H](C(C)C)NC(=O)[C@@H](C(C)C)OC1=O [valinomycin]
  decrease in the free Mfn2 level: 15-20%
